Literature values in US6710195B2, “Method for preparing and using polyoxyethylated castor oil in pharmaceutical compositions” (SuperGen, Inc., priority 2001, dated 2004).

- solubility in water: less than 0.01 mg/mL
Compound: CC(=O)O[C@H]1C(=O)[C@@]2(C)[C@H]([C@H](OC(=O)c3ccccc3)[C@]3(O)C[C@H](OC(=O)[C@H](O)[C@@H](NC(=O)c4ccccc4)c4ccccc4)C(C)=C1C3(C)C)[C@]1(OC(C)=O)CO[C@@H]1C[C@@H]2O [paclitaxel]
